# Measurements as given in PubChem BioAssay AID485314 (National Center for Advancing Translational Sciences (NCATS), 2010).
# Screen size: about 340,000 compounds; about 4,500 (1.3%) were called active. This list was built around the results that the source calls inconclusive (neither active nor inactive); the mix of calls is not that of the screen. The call rests on the fitted dose curve; in most records, active means well fitted inhibition curve with a large enough effect; inconclusive means small, poorly fitted or top-dose-only effect, or another doubt; inactive means no such curve, though single readings can be large or run the other way. Potencies beside an inconclusive call are fits to weak or partial responses and may not hold up.
# Target: DNA polymerase beta (Homo sapiens) (UniProt P06746)
# Assay: qHTS Assay for Inhibitors of DNA Polymerase Beta
# Details: Pol beta primer extension/strand displacement, fluorescence kinetic; activity change, negative = inhibition: at 114 µM (top of the series)
# Outline: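 10 nM enzyme + cpd, 15 min RT; start with substrate 50 nM final; read 0 min and after 10 min RT. Corrected, normalized data; 4-parameter Hill curve fit.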
# On the % scale 0 is the no-effect control and ±100 the full control effect; potency means the concentration at half of the fitted maximal effect.
Structure (SMILES),"activity change, negative = inhibition",Potency
CCCCN1C(=O)c2[nH]nc(-c3ccccc3O)c2C1c1cc(Br)c(O)c(OC)c1 (stereo not given),inactive: 2.92%,–
O=[N+]([O-])c1ccc(/C=N/n2c(CO)nc3ccccc32)s1,–,"inconclusive: 14.1 µM [inhibitor, full curve]"
C=CCN(C(=O)Cc1cccs1)c1nc(-c2ccc(S(C)(=O)=O)cc2)cs1,–,"inconclusive: 22.4 µM [inhibitor, full curve]"
Cc1nnc(NC(=O)CSc2nc3c([nH]c4ccccc43)c(=O)n2-c2ccc(Cl)cc2)s1,inactive: 24.2%,–
COc1c(C)cc(S(=O)(=O)NC2CC(C)(C)NC(C)(C)C2)c(C)c1C,–,"inconclusive: 89.1 µM [inhibitor, single point]"
CC(=O)N1CCc2cc(S(=O)(=O)NC(C(=O)NC3CCCc4ccccc43)C(C)C)ccc21 (stereo not given),–,active: 31.6 µM
C=CCn1c(SCC(=O)NC(=O)NCc2ccco2)nc2sc(CC)cc2c1=O,–,active: 14.1 µM
CN(C(=O)COC(=O)c1nc(Cl)c(Cl)c(Cl)c1Cl)C1CCS(=O)(=O)C1 (stereo not given),inactive: 11.1%,–
COc1ccc2[nH]c3c(N4CCC(O)(c5cccc(C(F)(F)F)c5)CC4)ncnc3c2c1,–,"inconclusive: 5.62 µM [inhibitor, single point]"
O=C(CN1CCCC1)Nc1cc(F)ccc1F,–,"inconclusive: 89.1 µM [inhibitor, single point]"
Cc1cc(N2C(=O)C3CC=CCC3C2=O)cc(C)c1Br (stereo not given),–,"inconclusive: 63.1 µM [inhibitor, single point]"
Cc1ccc(C)c(NC(=O)CCC(=O)NNC(=O)COc2cc(C)ccc2C)c1,–,"inconclusive: 0.141 µM [inhibitor, full curve, poor fit]"
CC(=O)C1=NN(c2ccccc2)C(c2cccs2)N1c1ccc(N(C)C)cc1 (stereo not given),–,"inconclusive: 12.6 µM [inhibitor, partial curve, poor fit]"
Cc1cc(C(=O)Nc2nc3c(C)cccc3s2)c(C)o1,–,"inconclusive: 5.01 µM [inhibitor, full curve]"
C=Cc1ccc(Cn2c(C(=O)O)c(CNCc3ccccc3)c3ccc(C)cc32)cc1,inactive: 7.74%,–
O=C(c1cccc([N+](=O)[O-])c1)c1ccc2[nH]c(=O)[nH]c2c1,inconclusive: -54.9% [inhibitor],–
O=C(N/N=C/C=C/c1ccccc1[N+](=O)[O-])c1cc(-c2ccccc2)n[nH]1,–,"inconclusive: 35.5 µM [inhibitor, partial curve]"
O=c1[nH]c(O)c(/C=C2\C=Nc3ccc(Br)cc32)[nH]1,–,active: 20 µM
Cc1ccc2nc(SC(C)C(=O)NC3CCCc4ccccc43)[nH]c2c1 (stereo not given),inactive: -3.02%,–
S=C(Nc1ccccc1)N1CCN(C/C=C/c2ccccc2)CC1,–,"inconclusive: 0.708 µM [inhibitor, full curve, poor fit]"
O=C(O)c1ccn2c(C(=O)c3ccc(Cl)cc3)c(-c3ccccc3)cc2c1,–,"inconclusive: 89.1 µM [inhibitor, single point]"
Cc1cc(C)c(NC(=O)Cc2ccc(-n3cccc3)cc2)c(C)c1,–,"inconclusive: 44.7 µM [inhibitor, partial curve]"
COc1ccc(CNC(=O)CN(Cc2ccccc2)S(=O)(=O)c2ccc(Cl)cc2)cc1,–,"inconclusive: 79.4 µM [inhibitor, partial curve]"
CCc1noc(-c2ccc(N3CCCCC3C)c([N+](=O)[O-])c2)n1 (stereo not given),inactive: -14.5%,–

# Four entries picked at random from those above:
Structure (SMILES),"activity change, negative = inhibition",Potency
CN(C(=O)COC(=O)c1nc(Cl)c(Cl)c(Cl)c1Cl)C1CCS(=O)(=O)C1 (stereo not given),inactive: 11.1%,–
Cc1cc(C)c(NC(=O)Cc2ccc(-n3cccc3)cc2)c(C)c1,–,"inconclusive: 44.7 µM [inhibitor, partial curve]"
CC(=O)C1=NN(c2ccccc2)C(c2cccs2)N1c1ccc(N(C)C)cc1 (stereo not given),–,"inconclusive: 12.6 µM [inhibitor, partial curve, poor fit]"
O=[N+]([O-])c1ccc(/C=N/n2c(CO)nc3ccccc32)s1,–,"inconclusive: 14.1 µM [inhibitor, full curve]"

# Continued.

Structure (SMILES),"activity change, negative = inhibition",Potency
CCOc1c(Nc2ccc(C(C)C)cc2)c(=O)c1=O,–,"inconclusive: 63.1 µM [inhibitor, single point]"
Cc1ccc(NC(=O)CN2C(=O)C3(SCC(=O)N3c3cccc(Cl)c3)c3ccccc32)cc1C (stereo not given),–,"inconclusive: 25.1 µM [inhibitor, partial curve, poor fit]"
CCOc1cc(C2Nc3cccc4cccc(c34)N2)ccc1O,inactive: 0.877%,–
COC(=O)c1ccc(CSc2nc3c(cnn3-c3ccc(Cl)cc3)c(=O)[nH]2)o1,–,"inconclusive: 89.1 µM [inhibitor, single point]"
O=C(N/N=C/c1ccccn1)c1sc2ccccc2c1Cl,–,active: 44.7 µM
CCC(=O)Nc1nnc(CCc2ccccc2)s1,inactive: -8.21%,–
Cc1cc(/C=C2\SC(=S)NC2=O)c(C)[nH]1,–,active: 22.4 µM
COc1ccc(-c2ccc(C#N)c(SCC(=O)Nc3sc4c(c3C#N)CCC4)n2)cc1OC,–,"inconclusive: 3.55 µM [inhibitor, full curve, poor fit]"
O=C(COc1ccccc1)Nc1nnc(S(=O)(=O)N2CCCC2)s1,inconclusive: -57.9% [inhibitor],–
COc1ccccc1/C=C1\SC(=S)N(Nc2nc(C)cc(C)n2)C1=O,inactive: -1.4%,–
Cc1ccc(OCCn2c(=S)[nH]c3ccccc32)c(C(C)C)c1,inactive: 14.6%,–
N#C/C(=C/c1ccc([N+](=O)[O-])cc1)C(=O)Nc1ccccc1O,inactive: 3.76%,–
Cc1ccc(NC(=O)CSc2nc(O)cc(=O)n2-c2ccc(C)cc2)cc1,inactive: 0.586%,–
Cc1cc(C)c(NC(=O)C2CCN(c3nnc(C)c4c(C)n(-c5ccccc5)nc34)CC2)c(C)c1,–,"inconclusive: 89.1 µM [inhibitor, single point]"
Cc1ccc(-n2ncc3c(NCCCn4ccnc4)ncnc32)c(C)c1,–,"inconclusive: 31.6 µM [inhibitor, partial curve]"
O=C(Nc1ccc(F)cc1)C(=O)c1c(O)[nH]c2ccc([N+](=O)[O-])cc12,–,"inconclusive: 39.8 µM [inhibitor, single point]"
Cc1cc(C)n(C(C)CC(=O)NCc2ccc(N(C)C)cc2)n1 (stereo not given),inactive: -6.16%,–
O=C(CSc1nnc(NC(=O)c2ccc(F)cc2)s1)NCc1ccco1,inactive: -8.62%,–
C=CCc1ccccc1OCC(=O)O,inconclusive: -78.5% [inhibitor],–
COc1ccc(OC)c(NC2=NC3(CCCCC3)N=C(N)N2)c1,–,"inconclusive: 3.55 µM [inhibitor, single point]"
COc1ccc(C(=O)C2CCCN(Cc3cn(C)nc3-c3ccccc3)C2)cc1F (stereo not given),–,"inconclusive: 0.631 µM [inhibitor, full curve, poor fit]"
S=c1[nH]nc(-c2cc(-c3ccccc3)n[nH]2)n1/N=C/c1c(Cl)cccc1Cl,–,active: 14.1 µM
COc1ccc(-c2cc(C(F)(F)F)n3nc(C(=O)NCC45CC6CC(CC(C6)C4)C5)cc3n2)cc1,–,"inconclusive: 8.91 µM [inhibitor, partial curve]"
Cc1c(C(=O)OC2CCCC2)[nH]c2c1C(=O)CC(c1ccco1)C2 (stereo not given),–,"inconclusive: 11.2 µM [inhibitor, partial curve, poor fit]"

Structure (SMILES),"activity change, negative = inhibition",Potency
CC(C)CNC(=O)c1cccc2c1-c1ccccc1C2=O,–,"inconclusive: 14.1 µM [inhibitor, single point]"
O=[N+]([O-])c1cc(C(F)(F)F)cc([N+](=O)[O-])c1NN=C1CCCCC1,–,"inconclusive: 25.1 µM [inhibitor, partial curve]"
COc1ccc(F)c(CN2CCC(n3nccc3NC(=O)C3CCOC3)CC2)c1 (stereo not given),inactive: -0.756%,–
C=CCn1c(CSCc2ccc(Cl)cc2Cl)nnc1SCC(=O)Nc1ccc(C(=O)O)cc1,inactive: 0.477%,–
COc1cc(OC)cc(C(=O)NCC(=O)OCC(=O)/C=C2/N(C)c3ccccc3C2(C)C)c1,–,"inconclusive: 89.1 µM [inhibitor, single point]"
Cc1cccc(C2Nc3ccccc3C(=O)N2c2ccccc2)n1 (stereo not given),–,"inconclusive: 3.55 µM [inhibitor, partial curve, poor fit]"
Cc1ccccc1NC(=O)Cn1c(O)c(N=NC(=O)c2ccccc2O)c2ccccc21,–,active: 10 µM
O=C(Nc1cccc(Cl)c1)OCCN1CCN(Cc2ccccc2)CCC1=O,–,"inconclusive: 79.4 µM [inhibitor, single point]"
CC(=O)Nc1ccc(S(=O)(=O)/N=C2/NC(=O)/C(=C\c3ccco3)S2)cc1,–,active: 10 µM
O=C(NCC(=O)N(c1cccnc1)C(C(=O)NC1CCCC1)c1cccs1)c1cccs1 (stereo not given),–,"inconclusive: 63.1 µM [inhibitor, single point]"
O=C(NCC(=O)N1CCc2ccccc2C1)c1ccc(Cl)cc1Cl,–,"inconclusive: 3.16 µM [inhibitor, single point]"
CCC(O)CNC(=O)CCc1nnc(C2(c3ccc(Cl)cc3)CCC2)o1 (stereo not given),–,"inconclusive: 0.794 µM [inhibitor, full curve, poor fit]"
CN(CC(=O)Nc1ccc(F)c(Cl)c1)S(=O)(=O)c1ccc2c(c1)n(C)c(=O)c(=O)n2C,inactive: 6.01%,–
COc1ccc(OC)c(C(C)NC(=O)Cn2c(=O)cc(C)c3c(C)nn(-c4ccc(C)cc4)c32)c1 (stereo not given),inactive: 39.3%,–
CC1=NN(c2ccccc2)C(=O)/C1=C/C=C/C=C/N(C)C,–,"inconclusive: 35.5 µM [inhibitor, partial curve]"
CCOC(=O)/C(=N/Nc1ccc(OC)cc1)Sc1nnc(CCc2ccccc2)n1-c1ccccc1,–,"inconclusive: 0.562 µM [inhibitor, full curve, poor fit]"
Clc1ccc2oc(-c3ccccc3)cc(=NCCCN3CCOCC3)c2c1,inactive: -16%,–
COc1ccc(S(=O)(=O)N(C)C)cc1NC(=O)CCCSc1ccccc1,inactive: 12.6%,–
Cc1c(NC(=O)/C(C#N)=C/c2c(Oc3ccccc3)nc3ccccn3c2=O)c(=O)n(-c2ccccc2)n1C,–,"inconclusive: 44.7 µM [inhibitor, single point]"
COC(=O)c1ccccc1NC(=O)CCS(=O)(=O)c1ccc(Br)cc1,–,active: 2.51 µM
N#Cc1c(SCC(=O)Nc2nccs2)nc2c(c1-c1ccco1)CCCC2,–,"inconclusive: 35.5 µM [inhibitor, partial curve]"
O=C(Nc1ccccc1)Oc1cccc(Br)c1,inconclusive: -30.6% [inhibitor],–
